Test results taken from patent publication CN101054416A.
No constants are given. Whether binding was seen depends on the method and setting. Some binding calls cover weakened binding; strength is not graded here.

The chains behind the UniProt entries cited, without tags or fusion partners. Residues count along the entry.
UniProt P35613, residues 138-325: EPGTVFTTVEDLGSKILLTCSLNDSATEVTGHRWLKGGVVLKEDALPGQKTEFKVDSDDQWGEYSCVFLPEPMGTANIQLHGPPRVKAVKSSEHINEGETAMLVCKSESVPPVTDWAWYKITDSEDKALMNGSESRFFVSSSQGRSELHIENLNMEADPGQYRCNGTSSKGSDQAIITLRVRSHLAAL

Target: HAb18G/CD147胞外区蛋白 (human) (UniProt P35613)
Test: indirect ELISA screening of hybridoma clones on HAb18G/CD147 extracellular region protein

binding: binds
B1: 单克隆抗体HAb18GC2 (antibody, V domains shown)
VH: EVKLEESGGGLVQPGGSMKLSCVASGFTFSNFWMNWVRQSPEKGLEWVAEIRLKSNNYATHYAESVKGRFTISRDDSKSSVYLQMNNLRTEDTGIYYCTSYDYEYWGQGTLVTVSA
VL: NIVMTQSPKSMSMSVGERVTLSCKASENVGTYVSWYQQKPEQSPKLLIYGASNRYTGVPDRFTGSGSATDFTLTISSVQAEDLADYHCGQSYSYPFTFGSGTKLEIK
